# Drug screen on melanoma cell lines: apoptosis marker

Drug key:
dasatinib, 0.02 µM: Cc1nc(Nc2ncc(C(=O)Nc3c(C)cccc3Cl)s2)cc(N2CCN(CCO)CC2)n1
XAV939, 10 µM: Oc1nc(-c2ccc(C(F)(F)F)cc2)nc2c1CSCC2
CHIR-265, 0.4 µM: Cn1c(Nc2ccc(C(F)(F)F)cc2)nc2cc(Oc3ccnc(-c4ncc(C(F)(F)F)[nH]4)c3)ccc21
MK-1775, 0.1 µM: C=CCn1c(=O)c2cnc(Nc3ccc(N4CCN(C)CC4)cc3)nc2n1-c1cccc(C(C)(C)O)n1
crizotinib, 1 µM: C[C@@H](Oc1cc(-c2cnn(C3CCNCC3)c2)cnc1N)c1c(Cl)ccc(F)c1Cl
MK-2206, 2 µM: NC1(c2ccc(-c3nc4ccn5c(=O)[nH]nc5c4cc3-c3ccccc3)cc2)CCC1
OSU-03012, 5 µM: NCC(=O)Nc1ccc(-n2nc(C(F)(F)F)cc2-c2ccc3c(ccc4ccccc43)c2)cc1

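Human melanoma cell lines in 1,536-well plates were treated with a pair of drugs for 72 h, then fixed, stained and imaged. The read-out is the fraction of cleaved-PARP-positive nuclei, in % of that fraction in the DMSO control; 200 means twice the control level of this apoptosis marker. Every drug was used at one fixed concentration, the higher of two screened. No replicate spread is given; individual values may be noisy. Basal and induced levels differ widely between cell lines.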
This is part of the screen, not chosen by result.
A dash means that no value is listed here.

Combination | WM115 | G-361 | A375 | MEL-HO | MeWo | WM451Lu | WM3619 | LB2518-MEL | C32 | UACC-62 | SK-MEL-2 | LOX IMVI | SK-MEL-28 | IST-MEL1 | SK-MEL-5
crizotinib + XAV939 | 96.2 | 67.7 | 47.6 | 72.9 | 53.6 | 76.7 | 88.5 | 60.8 | 105 | 270 | 195 | 151 | 74.1 | 149 | 276
MK-1775 + OSU-03012 | 843 | 286 | - | 163 | 139 | 66.7 | 1170 | 244 | 85.5 | 165 | 723 | 116 | 1740 | 183 | 598
MK-2206 + dasatinib | 1050 | 188 | 164 | 116 | 86.0 | 120 | 124 | 181 | 990 | 298 | 40.6 | 375 | 118 | 303 | 326
MK-2206 + MK-1775 | 724 | 140 | - | 107 | 171 | 79.5 | 126 | 143 | 450 | 158 | 38.9 | 94.4 | 194 | 145 | 1060
OSU-03012 + XAV939 | 214 | 23.7 | 170 | 56.3 | 52.9 | 100 | 157 | 74.4 | 90.0 | 468 | 789 | 78.3 | 328 | 71.6 | 410
crizotinib + MK-2206 | 770 | 150 | 46.9 | 166 | 129 | 319 | 104 | 184 | 206 | 323 | 142 | 194 | 77.5 | 52.9 | 320
XAV939 + MK-1775 | 75.2 | 131 | 230 | 72.2 | 42.6 | 151 | 135 | 88.5 | 110 | 22.2 | 189 | 78.7 | 600 | 45.8 | 776
XAV939 + CHIR-265 | 160 | 209 | 243 | 149 | 38.6 | 422 | 216 | 147 | 307 | 934 | 126 | 45.4 | 262 | 152 | 439
CHIR-265 + MK-1775 | 467 | 795 | - | 115 | 231 | 386 | 242 | 342 | 305 | 224 | 284 | 69.9 | 146 | 88.8 | 963
CHIR-265 + dasatinib | 2290 | 1030 | 537 | 88.0 | 168 | 142 | 192 | 68.1 | 462 | 343 | 289 | 1020 | 195 | 450 | 1590
OSU-03012 + MK-2206 | 93.0 | 841 | - | 88.1 | 65.4 | 85.7 | 458 | 82.7 | 182 | 151 | 353 | 139 | 493 | 122 | 226
CHIR-265 + MK-2206 | 3620 | 932 | 133 | 169 | 108 | 218 | 154 | 475 | 874 | 232 | 338 | 113 | 255 | 241 | 2110
OSU-03012 + CHIR-265 | 222 | 351 | - | 99.4 | 153 | 222 | 215 | 147 | 134 | 219 | 201 | 61.4 | 562 | 101 | 1740
MK-1775 + dasatinib | 250 | 151 | - | 201 | 115 | 127 | 197 | 81.6 | 2120 | 205 | 214 | 769 | 257 | 129 | 351
crizotinib + CHIR-265 | 1470 | 778 | 151 | 131 | 173 | 284 | 208 | 320 | 338 | 231 | 441 | 113 | 68.4 | 28.7 | 2220
OSU-03012 + crizotinib | 80.4 | 183 | - | 53.6 | 200 | 220 | 332 | 92.5 | 49.2 | 194 | 612 | 70.3 | 242 | 77.0 | 150
dasatinib + crizotinib | 1110 | 143 | 76.4 | 68.6 | 31.0 | 128 | 123 | 46.3 | 902 | 373 | 67.0 | 253 | 131 | 65.7 | 294
OSU-03012 + dasatinib | 264 | 173 | - | 92.9 | 86.5 | 292 | 173 | 125 | 335 | 184 | 925 | 185 | 1150 | 111 | 304
crizotinib + MK-1775 | 357 | 55.6 | - | 70.8 | 96.4 | 136 | 210 | 139 | 1050 | 179 | 111 | 39.1 | 40.9 | 67.6 | 269
dasatinib + XAV939 | 155 | 121 | 30.8 | 78.1 | 127 | 73.8 | 186 | 59.0 | 119 | 157 | 57.1 | 118 | 262 | 128 | 55.8

The first 2 entries again:

Combination,WM115,G-361,A375,MEL-HO,MeWo,WM451Lu,WM3619,LB2518-MEL,C32,UACC-62,SK-MEL-2,LOX IMVI,SK-MEL-28,IST-MEL1,SK-MEL-5
crizotinib + XAV939,96.2,67.7,47.6,72.9,53.6,76.7,88.5,60.8,105,270,195,151,74.1,149,276
MK-1775 + OSU-03012,843,286,-,163,139,66.7,1170,244,85.5,165,723,116,1740,183,598

Values as published with doi:10.1371/journal.pone.0140310, rounded.